No constants are given. Whether binding was seen depends on the method and setting. Binding seen in cells or lysates may run through a third protein. Some binding calls cover weakened binding; strength is not graded here. Each block holds one binder with its values, some of them ahead of it.
Assays:
[1] = biological target: tagged (Flag-HA) cyclin E1 of knock-in mice, end of the tag not told for the experiment or an about 1:1 mixture of the N- and C-terminally tagged forms (mouse) (UniProt Q61457); experiment: co-IP; anti-Flag immunoprecipitation from spleens of KI mice, elution with Flag peptides, re-immunoprecipitation with anti-p130 antibody or IgG, immunoblot
[2] = biological target: N-terminally Flag- and HA-tagged cyclin E1 (cyclin E1^Ntag knock-in allele) (mouse) (UniProt Q61457); experiment: co-IP; anti-Flag immunoprecipitation from spleens and thymuses of Cdk2+/+/cyclin E1 Ntag/Ntag (KI) and Cdk2-/-/cyclin E1 Ntag/Ntag mice, wild-type mice as control, immunoblot
[3] = biological target: cyclin D1, mouse (mouse (endogenous in spleen)) (UniProt P25322); experiment: co-IP; cyclins D1, A2 or B1 immunoprecipitated from lysates of wild-type or Cdk2-/- spleens, immunoblot
[4] = biological target: tagged (Flag-HA) cyclin E1 of knock-in mice, end of the tag not told for the experiment or an about 1:1 mixture of the N- and C-terminally tagged forms (mouse) (UniProt Q61457); experiment: co-IP; anti-Flag immunoprecipitation of cyclin E1 from spleens of tagged knock-in mice, immunoblot with the indicated antibodies

By UniProt entry, the sequences of proteins in these tests, tags left out.
UniProt Q61457: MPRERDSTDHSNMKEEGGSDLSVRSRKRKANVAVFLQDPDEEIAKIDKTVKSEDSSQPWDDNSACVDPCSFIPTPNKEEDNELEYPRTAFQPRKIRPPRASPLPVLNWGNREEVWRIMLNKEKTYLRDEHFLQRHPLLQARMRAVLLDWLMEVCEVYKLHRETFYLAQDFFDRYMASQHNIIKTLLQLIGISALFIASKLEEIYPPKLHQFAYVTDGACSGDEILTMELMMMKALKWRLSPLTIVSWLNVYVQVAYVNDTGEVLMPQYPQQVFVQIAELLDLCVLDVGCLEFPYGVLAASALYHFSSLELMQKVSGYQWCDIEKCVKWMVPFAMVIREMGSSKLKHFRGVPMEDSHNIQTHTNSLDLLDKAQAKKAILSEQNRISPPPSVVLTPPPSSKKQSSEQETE
UniProt P25322: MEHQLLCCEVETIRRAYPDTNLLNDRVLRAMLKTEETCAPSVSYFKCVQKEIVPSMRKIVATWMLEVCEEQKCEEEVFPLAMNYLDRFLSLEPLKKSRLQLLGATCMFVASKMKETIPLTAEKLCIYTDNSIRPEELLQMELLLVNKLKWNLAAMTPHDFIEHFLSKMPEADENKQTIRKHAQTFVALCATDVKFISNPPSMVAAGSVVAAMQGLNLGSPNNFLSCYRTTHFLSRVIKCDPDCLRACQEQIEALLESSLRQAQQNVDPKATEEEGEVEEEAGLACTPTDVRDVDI

binding [1]: binds
B1: p130, mouse (protein, UniProt Q64700 1-1135)
chain: MASGGNQSPPPPPAAAASSEEEEEDGDAADRAQPAGSPSHQIQQRFEELCSRLNMDEAARAEAWSSYRSMSESYTLEGNDLHWLACALYVACRKSVPTVSKGTAEGNYVSLTRILRCSEQSLIEFFNKMKKWEDMANLPPHFRERTERLERNFTVSAVIFKKYEPIFQDIFKYPQEEQPRQQRGRKQRRQPCTTSEIFHFCWVLFIYAKGNFPMISDDLVNSYHLLLCALDLVYGNALQCSNRKELVNPNFKGLSEDCHPKDSKASSDPPCVIEKLCSLHDGLVLEAKGIKEHFWKPYIRKLFEKKLLKGKEENLTGFLEPGNFGESFKAVNKAYEEYVLAAGNLDERVFLGEDAEEEVGTLSRCLSAASGTESAERTQMRDILQQHLDKSKALRVCTPLTGVRYVQENSPCVTPVSTAAHSLSRLHTMLSGLRNAPSEKLERILRSCSRDPTQAIADRLKEMYEIYSQHFQPDENFSNCAKEIANKHFRFAEMLYYKVLESVIEQEQKRLGDMDLSGVLEHDAFHRSLLACCLEVVAFSHKPPGNFPFIAEIFDVPHYHFYKVIEVFIRAEDGLCREVVKHLNQIEEQILDHLAWKTKSPLWDRIRDNENRVPTCEEVMPPQNLERTDEIYIAGSPLTPRRVGEVRADAGGLGRSITSPTTLYDRYSSPTVSTTRRRLFENDSPSEGSTSGRIPPQPLVNAVPVQNVPGETVSVTPVPGQTLVTMATATVTANNGQTVTIPVQGIANENGGITFFPVQVNVGGQAQAVAGSIQPLSAQALAGSLSSQQVTGTTLQVPGPVAIQQISPGGQQQNPGQPLTSSSIRPRKTSSLALFFRKVYYLAGVRLRDLCIKLDISDELRKKIWTCFEFSIIQCTELMMDRHLDQLLMCAIYVMAKVTKEDRSFQNIMRCYRTQPQARSQVYRSVLIKGKRRNSGSSESRSHQNSPTELNTDRASRDSSPVMRSNSTLPVPQPSSAPPTPTRLTGASSDVEEEERGDLIQFYNNIYRKQIQAFAMKYSQANAQTDTPPLSPYPFVRTGSPRRVQLSQSHPIYISPHNNEAMPSPREKIFYYFSNSPSKRLREINSMIRTGETPTKKRGILLDDGSESPAKRICPENHSALLRRLQDVANDRGSQ

binding [2]: binds | binding [3]: binds
B2: Cdk4, mouse (enzyme, UniProt P30285 1-303)
chain: MAATRYEPVAEIGVGAYGTVYKARDPHSGHFVALKSVRVPNGGAAGGGLPVSTVREVALLRRLEAFEHPNVVRLMDVCATSRTDRDIKVTLVFEHIDQDLRTYLDKAPPPGLPVETIKDLMRQFLSGLDFLHANCIVHRDLKPENILVTSNGTVKLADFGLARIYSYQMALTPVVVTLWYRAPEVLLQSTYATPVDMWSVGCIFAEMFRRKPLFCGNSEADQLGKIFDLIGLPPEDDWPREVSLPRGAFAPRGPRPVQSVVPEMEESGAQLLLEMLTFNPHKRISAFRALQHSYLHKEESDAE

binding [4]: binds
B3: Cdc7, mouse (enzyme, UniProt Q9Z0H0 1-564)
chain: MEEPMAFSSLRGSDRCPADDSLKKYEQSVKLSGIKRDIEELCEAVPQLVNVFKIKDKIGEGTFSSVYLATAQLQEGHEEKIALKHLIPTSHPMRIAAELQCLTVAGGQDNVMGLKYCFRKNDHVVIAMPYLEHESFLDILNSLSFQEVREYMYNLFVALKRIHQFGIVHRDVKPSNFLYNRRLKKYALVDFGLAQGTRDTKIELLKFVQSEAQQEDCSRNKYHGVVGHKGLLSRPAPKTVDQQCTPKTSVKRSYTQVHIKQGKDGKERSVGLSVQRSVFGERNFNIHSSISHESPAEKLIKQSKTVDIISRKLATKKTAISTKAMNSVMRETARSCPAVLTCDCYGSDRVCSVCLSRRQQVAPRAGTPGFRAPEVLTKCPDQTTAIDMWSAGVIFLSLLSGRYPFYKASDDLTALAQIMTIRGSRETIQAAKAFGKSVLCSKEVPAQDLRALCERLRGLDSTTPRSASGPPGNASYDPAASKNTDHKASRVQAAQAQHSEDSLYKRDNDGYWSHPKDCTSNSEGWDSVPDEAYDLLDKLLDLNPASRITAEAALLHAFFKDMCS
